Reference: patent US8753847

Tested on: T1, TspMI restriction endonuclease (Thermus sp.)
T1 sequence: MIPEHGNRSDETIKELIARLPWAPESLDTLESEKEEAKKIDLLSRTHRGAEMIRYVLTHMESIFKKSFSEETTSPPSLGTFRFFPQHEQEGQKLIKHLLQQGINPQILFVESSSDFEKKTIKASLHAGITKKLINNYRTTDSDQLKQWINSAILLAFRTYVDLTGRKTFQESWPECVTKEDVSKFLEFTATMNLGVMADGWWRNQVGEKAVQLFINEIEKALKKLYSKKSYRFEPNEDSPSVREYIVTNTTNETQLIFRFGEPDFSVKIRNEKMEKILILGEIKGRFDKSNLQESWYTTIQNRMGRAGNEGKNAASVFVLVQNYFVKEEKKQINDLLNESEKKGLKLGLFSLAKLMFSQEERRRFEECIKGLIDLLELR
Assay: enzyme reaction in vitro
Details: expressed at 37 C then briefly 65 C; gene selected by cleavage after three rounds; protein translated in vitro; protein details: PURE system expression in emulsion droplets

## CCCGGG (double strand)
  activity on this sequence: active

Protein sequences can lack the tags named with them.
